Assay [1] deals with endogenous CDK1 (human (endogenous in HeLa)) (UniProt P06493). The assay can be described thus: co-IP; endogenous proteins; HeLa, BT549 (also MB231, MB435) cells treated with 100 nM Nocodazole for 5 hours, or HeLa cells released from a double thymidine block; NP-40 lysis buffer, antibody 4 °C 16 hours, Protein A/G beads, Western blot.
Assay [2] deals with T1, endogenous PP2A/B55α (human (endogenous in HEK293 and HeLa)) (UniProt P63151).
T1 sequence: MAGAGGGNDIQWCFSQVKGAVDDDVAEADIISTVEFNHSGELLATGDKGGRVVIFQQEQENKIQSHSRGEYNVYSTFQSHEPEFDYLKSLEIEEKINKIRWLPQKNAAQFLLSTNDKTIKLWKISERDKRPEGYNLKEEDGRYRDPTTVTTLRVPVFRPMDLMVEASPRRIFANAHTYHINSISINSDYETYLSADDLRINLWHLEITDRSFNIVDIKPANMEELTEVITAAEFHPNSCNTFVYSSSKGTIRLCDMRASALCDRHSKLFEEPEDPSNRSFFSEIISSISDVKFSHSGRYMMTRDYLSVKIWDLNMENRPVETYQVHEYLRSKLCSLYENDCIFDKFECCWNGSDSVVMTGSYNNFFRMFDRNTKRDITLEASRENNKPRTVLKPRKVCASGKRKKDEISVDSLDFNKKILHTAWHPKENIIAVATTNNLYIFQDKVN
Described as above.

The chains behind the UniProt entries cited, without tags or fusion partners.
UniProt P06493: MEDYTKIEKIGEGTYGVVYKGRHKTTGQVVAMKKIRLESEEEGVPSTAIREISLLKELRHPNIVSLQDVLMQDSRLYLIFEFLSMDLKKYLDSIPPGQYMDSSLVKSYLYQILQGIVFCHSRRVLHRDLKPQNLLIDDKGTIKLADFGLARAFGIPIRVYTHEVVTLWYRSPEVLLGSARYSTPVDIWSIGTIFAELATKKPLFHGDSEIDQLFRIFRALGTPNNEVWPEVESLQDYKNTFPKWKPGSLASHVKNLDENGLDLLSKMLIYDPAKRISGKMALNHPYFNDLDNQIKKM
UniProt P52732: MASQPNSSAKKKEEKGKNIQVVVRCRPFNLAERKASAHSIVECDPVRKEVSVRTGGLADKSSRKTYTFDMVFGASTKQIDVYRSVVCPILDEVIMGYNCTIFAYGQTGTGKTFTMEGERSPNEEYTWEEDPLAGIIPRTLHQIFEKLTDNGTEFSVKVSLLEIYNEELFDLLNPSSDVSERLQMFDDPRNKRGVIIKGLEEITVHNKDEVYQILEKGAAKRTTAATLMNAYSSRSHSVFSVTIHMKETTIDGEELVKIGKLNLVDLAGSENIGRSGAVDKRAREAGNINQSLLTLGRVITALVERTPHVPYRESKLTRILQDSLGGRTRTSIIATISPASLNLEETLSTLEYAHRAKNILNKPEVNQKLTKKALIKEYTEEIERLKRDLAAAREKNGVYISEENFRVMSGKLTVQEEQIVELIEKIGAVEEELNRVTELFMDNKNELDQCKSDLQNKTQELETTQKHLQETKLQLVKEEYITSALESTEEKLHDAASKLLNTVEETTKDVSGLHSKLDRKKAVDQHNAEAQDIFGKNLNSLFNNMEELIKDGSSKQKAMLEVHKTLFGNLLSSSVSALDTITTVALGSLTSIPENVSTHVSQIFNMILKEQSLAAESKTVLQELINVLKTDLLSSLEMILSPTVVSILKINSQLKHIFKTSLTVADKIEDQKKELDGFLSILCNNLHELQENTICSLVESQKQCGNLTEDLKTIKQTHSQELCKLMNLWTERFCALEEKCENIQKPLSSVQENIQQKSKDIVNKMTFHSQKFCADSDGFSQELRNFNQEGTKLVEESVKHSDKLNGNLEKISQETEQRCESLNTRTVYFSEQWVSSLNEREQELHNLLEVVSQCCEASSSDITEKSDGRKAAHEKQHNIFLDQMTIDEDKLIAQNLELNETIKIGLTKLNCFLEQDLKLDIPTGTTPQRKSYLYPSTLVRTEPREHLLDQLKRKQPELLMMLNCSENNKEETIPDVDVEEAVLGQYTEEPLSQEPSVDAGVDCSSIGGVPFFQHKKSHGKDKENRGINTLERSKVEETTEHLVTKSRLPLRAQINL

These are yes or no findings as the source states them, for the method shown. In cells and extracts the contact can be indirect. Some entries that bind do so weakly or less than the wild type.

In the case of “endogenous EG5 (KIF11) (from UniProt P52732 1-1056)”, the binding entry in assay [1] and in assay [2] was “binds” each time.

(Values after paper PMC5431654.)
